Here are results for one molecule from patent US20220267427A1.

In experiment [1] the target is T1, fCK18 in apoptosis-induced HepG2 cell culture supernatant (human) (UniProt P05783).
T1 sequence: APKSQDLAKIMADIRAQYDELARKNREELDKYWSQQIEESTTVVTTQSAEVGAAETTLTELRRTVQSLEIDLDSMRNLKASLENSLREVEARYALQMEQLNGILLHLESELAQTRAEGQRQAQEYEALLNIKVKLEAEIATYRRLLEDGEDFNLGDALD
Put plainly: sandwich immunoassays of Example 4 against the commercial M30 kit.

Experiment [2] addresses T1, fCK18 in apoptosis-induced HepG2 cell culture supernatant (human). The experiment in a line: immunoprecipitation with antibody-bound magnetic microbeads, Western blot detected with K18-328Fab-ALP.

No constants are given. Whether binding was seen depends on the method and setting. Some results given as binding are weak or reduced against the parent protein; the word gives no strength.

B1: K18-624 antibody (antibody, V domains shown)
VH: DVQLVESGGGLVQPGGSRKLSCAASGFTFSSFGMHWVRQAPEKGLEWVAYISSGSTTIYYADTVKGRFTISRDNPKNTLFLQMTSLRSEDTAMYYCARRGMITTGAWFAYWGQGTLVTVSA
VL: DILLTQSPAILSVSPGERVSFSCRASQRIGTSIHWYQQRTNGSPRLLIKYASESISGIPSRFSGSGSGTDFTLSINSVESEDIADYYCQQSYIWPFTFGSGTKLEIK
Turning to B1, the binding result in experiment [1] and in experiment [2] was “binds” throughout.
